Measured values as given in PMC8621456, “New Investigations with Lupane Type A-Ring Azepane Triterpenoids for Antimycobacterial Drug Candidate Design” (International Journal of Molecular Sciences, 2021).

Legend:
Experiment in all cases: Cytotoxicity, MTT assay
Conditions in all cases: ratio of CC50/MIC
THP-1 (ATCC TIB-202) = tested on: THP-1 (ATCC TIB-202)
HeLa (ATCC CCL-2) = tested on: HeLa (ATCC CCL-2)
HepG2 (ATCC HB-8065) = tested on: HepG2 (ATCC HB-8065)

C=C(C)[C@@H]1CC[C@]2(C)CC[C@]3(C)[C@H](CC[C@@H]4[C@@]5(C)CCCNC(C)(C)[C@@H]5CC[C@]43C)[C@@H]12 [Compound 2, azepano-lupeol]
THP-1 SI (THP-1 (ATCC TIB-202)): 0.5
HeLa SI (HeLa (ATCC CCL-2)): 0.52
HepG2 SI (HepG2 (ATCC HB-8065)): 0.08

C=C(C)[C@@H]1CC[C@]2(CN)CC[C@]3(C)[C@H](CC[C@@H]4[C@@]5(C)CCCNC(C)(C)[C@@H]5CC[C@]43C)[C@@H]12 [Compound 3]
THP-1 SI (THP-1 (ATCC TIB-202)): 1
HeLa SI (HeLa (ATCC CCL-2)): 0.34
HepG2 SI (HepG2 (ATCC HB-8065)): 0.07

C=C(C)[C@@H]1CC[C@]2(COC(=O)c3cccnc3)CC[C@]3(C)[C@H](CC[C@@H]4[C@@]5(C)CCCNC(C)(C)[C@@H]5CC[C@]43C)[C@@H]12 [Compound 5]
THP-1 SI (THP-1 (ATCC TIB-202)): 1.97
HeLa SI (HeLa (ATCC CCL-2)): 2.22
HepG2 SI (HepG2 (ATCC HB-8065)): 0.74

C=C(C)[C@@H]1CC[C@]2(C=NNC(=O)c3ccncc3)CC[C@]3(C)[C@H](CC[C@@H]4[C@@]5(C)CCCNC(C)(C)[C@@H]5CC[C@]43C)[C@@H]12 [Compound 7]
THP-1 SI (THP-1 (ATCC TIB-202)): 20.5
HeLa SI (HeLa (ATCC CCL-2)): 22.52
HepG2 SI (HepG2 (ATCC HB-8065)): 3.83

C=C(C)[C@@H]1CC[C@]2(C(=O)NC(CO)Cc3ccccc3)CC[C@]3(C)[C@H](CC[C@@H]4[C@@]5(C)CCCNC(C)(C)[C@@H]5CC[C@]43C)[C@@H]12 (some centres unmarked) [Compound 8]
THP-1 SI (THP-1 (ATCC TIB-202)): 0.55
HepG2 SI (HepG2 (ATCC HB-8065)): 0.09

C=C(C)[C@@H]1CC[C@]2(C(=O)N3CCN(C)CC3)CC[C@]3(C)[C@H](CC[C@@H]4[C@@]5(C)CCCNC(C)(C)[C@@H]5CC[C@]43C)[C@@H]12 [Compound 9]
THP-1 SI (THP-1 (ATCC TIB-202)): 1.66
HeLa SI (HeLa (ATCC CCL-2)): 1.21
HepG2 SI (HepG2 (ATCC HB-8065)): 0.12

C=C(C)[C@@H]1CC[C@]2(C(=O)NC3CCCCC3)CC[C@]3(C)[C@H](CC[C@@H]4[C@@]5(C)CCCNC(C)(C)[C@@H]5CC[C@]43C)[C@@H]12 [Compound 10]
THP-1 SI (THP-1 (ATCC TIB-202)): 2.88
HeLa SI (HeLa (ATCC CCL-2)): 2.38
HepG2 SI (HepG2 (ATCC HB-8065)): 0.38

CC1(C)CCC23CCC4(C)C(CCC5C6(C)CCCNC(C)(C)C6CCC54C)C2C1OC3 (centres unmarked) [Compound 17]
THP-1 SI (THP-1 (ATCC TIB-202)): 0.47
HeLa SI (HeLa (ATCC CCL-2)): 0.24
HepG2 SI (HepG2 (ATCC HB-8065)): 0.04

CC(C)=C1CCC=C2CC[C@]3(C)[C@H](CC[C@@H]4[C@@]5(C)CCCNC(C)(C)[C@@H]5CC[C@]43C)[C@H]21 [Compound 18]
THP-1 SI (THP-1 (ATCC TIB-202)): 0.81
HeLa SI (HeLa (ATCC CCL-2)): 0.55
HepG2 SI (HepG2 (ATCC HB-8065)): 0.07
